The inconclusive results got no clear call from the source; some entries with a clear call stand among them for comparison. Where the call is inconclusive, the potency comes from a doubtful curve fit. Active and inactive are the calls of the source. Calls follow the shape of the dose curve; as a rule, active = well fitted inhibition curve with a large enough effect; inconclusive = small, poorly fitted or top-dose-only effect; inactive = flat fitted curve, though single readings scatter.
test system: NanoLuc luciferase (engineered Oplophorus gracilirostris luciferase); assay: Biochemical coelenterazine-based NLuc counterscreen for small molecule modulators of PMP22 gene expression - Km assay (AID 1508639); settings: secreted NLuc enzyme, coelenterazine luminescence, Km conditions; series mostly up to 57.5 µM
In short: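 Secreted NLuc, taken as filtered conditioned medium from S16 cells, was added after compounds had been pre-incubated 5 min with substrate (15 uM coelenterazine, sodium ascorbate, NaCl, 0.1% Triton X in PBS pH7.4); luminescence was read after 10 min at room temperature.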
Potency is read from the fitted curve at half-maximal effect.

SMILES | Potency
O=C(Nc1ccc(Br)cc1F)N1CC=C(c2c[nH]c3ccccc23)CC1 | inconclusive: 19.3 µM [inhibitor, partial curve]
CCS(=O)(=O)c1ncc(Cl)c(C(=O)Nc2c(C(=O)c3ccc(C)cc3)oc3ccccc23)n1 | inconclusive: 1.53 µM [inhibitor, full curve]
Cc1ccc(-n2nc3c(N4CCC(C(=O)NCCc5ccccc5C)CC4)nnc(C)c3c2C)cc1 | inactive
CCc1ccc(S(=O)(=O)c2nnn3c2nc(N(CC)Cc2ccccc2)c2cc(Cl)ccc23)cc1 | inactive
Cc1cccc(N2CCN(C(=O)c3cccc(-n4c(C)nc5cccnc54)c3)CC2)c1C | inconclusive: 19.3 µM [inhibitor, partial curve, poor fit]
CCc1cccc(C)c1NC(=O)c1nc2ccccc2nc1N1CCCCC1 | inconclusive: 4.85 µM [inhibitor, full curve, poor fit]
O=c1c2c3c(sc2n(Cc2ccccc2F)c(=O)n1-c1ccc(Cl)cc1)CCCC3 | inactive
Cc1cccc(C(=O)Nc2cccc(C(=O)OCc3cc(=O)n4nc(C(C)C)sc4n3)c2)c1 | inactive
O=C(Cn1cc(C(=O)c2ccco2)c2ccccc21)Nc1ccccc1C(F)(F)F | inactive
CCOc1ccc(OCC)c(NC(=O)CN(C)S(=O)(=O)c2ccc3c(c2)CCCC(=O)N3)c1 | inactive
CCc1nn(CC(=O)N(CC)Cc2ccccc2)c(=O)c2cc3occc3n12 | inconclusive: 21.7 µM [inhibitor, partial curve]
CCOc1ccccc1NC(=O)C(=O)NCCc1sc(-c2cccc(F)c2)nc1C | inactive
COCCNC(=O)c1ccc(-n2c(-c3ccccc3)cc3c2CCC(C)C3)cc1 (stereo unspecified) | inconclusive: 5.44 µM [inhibitor, full curve, poor fit]
CCOc1ccccc1NC(=O)CSc1nc2c(oc3ccccc32)c(=O)n1Cc1ccco1 | inactive
Cc1ccc(-n2c(=O)c3ccc(C(=O)NCc4ccccc4Cl)cc3n(CC(=O)Nc3ccc(C)cc3C)c2=O)cc1 | inactive
Cc1ccccc1CNC(=O)C(=O)NCC(c1cccs1)S(=O)(=O)c1ccc(Cl)cc1 (stereo unspecified) | inactive

SMILES | Potency
CCOc1ccccc1NC(=O)c1c(NCc2ccc(C)o2)sc2c1CCCCC2 | inconclusive: 17.2 µM [inhibitor, partial curve]
Cc1ccc(S(=O)(=O)C(CNS(=O)(=O)c2ccc(F)c(C(F)(F)F)c2)c2ccco2)cc1 (stereo unspecified) | inconclusive: 30.6 µM [inhibitor, single point]
CCc1ccc2ncc(C(=O)c3ccc(C)c(C)c3)c(N3CCC(C(N)=O)CC3)c2c1 | active: 7.69 µM
COCCNC(=O)c1cccc(Nc2nc3ccccc3n3nnnc23)c1 | inconclusive: 15.3 µM [inhibitor, full curve]
Cc1ccc(CN(Cc2cccn2-c2nnc(N3CCCC3=O)s2)C(=O)Nc2ccccc2C(F)(F)F)cc1 | inconclusive: 3.06 µM [inhibitor, full curve]
CCc1ccc(OCC(=O)Nc2cc3oc4ccccc4c3cc2OC)cc1 | inactive
COC(=O)c1ccccc1NC(=O)CCS(=O)(=O)c1nc(-c2ccc3c(c2)OCO3)cc(C(F)(F)F)n1 | inactive
Cc1cccc(N2CCN(C(=O)c3ccc(CS(=O)c4cccc(Cl)c4)o3)CC2)c1C (stereo unspecified) | inconclusive: 43.2 µM [inhibitor, partial curve, poor fit]
Cc1ccc(Cl)cc1NC(=O)Cn1c(=O)cc(C)c2c(C)nn(C)c21 | inactive
COc1ccc(NS(=O)(=O)c2ccc3c(c2)CC(C)N3C(=O)C2CCC2)cc1OC (stereo unspecified) | inconclusive: 43.2 µM [inhibitor, partial curve, poor fit]
COCCCNC(=O)c1ccc2c(c1)N=C(C)c1c(C)ccc(C)c1S2 | inconclusive: 19.3 µM [inhibitor, partial curve]
Cc1ccc(C)c(Nc2nn3c(=O)c4ccc(C(=O)NCc5cccs5)cc4nc3s2)c1 | inconclusive: 15.3 µM [inhibitor, partial curve, poor fit]
Cn1c(-c2cccc(Br)c2)cnc1NCc1cccc(F)c1 | inconclusive: 10.9 µM [inhibitor, partial curve]
CCCCCOc1ccc(/C=C/C(=O)Nc2sc(C(C)=O)c(C)c2C(=O)OCC)cc1OC | inactive
CCC(C)NC(=O)CSc1c2c(nc3cc(Cl)ccc13)CCCC2 (stereo unspecified) | inconclusive: 13.7 µM [inhibitor, partial curve, poor fit]

Two neighbouring entries out of the list so far:
SMILES | Potency
Cn1c(-c2cccc(Br)c2)cnc1NCc1cccc(F)c1 | inconclusive: 10.9 µM [inhibitor, partial curve]
CCCCCOc1ccc(/C=C/C(=O)Nc2sc(C(C)=O)c(C)c2C(=O)OCC)cc1OC | inactive

Source: PubChem BioAssay (NCATS)
